What all share (details): yeast three-hybrid, YBZ-1, SC-Leu-His + 0.5 mM 3-AT, 4 days
In assay [1] the target is T1, PUM1 PUF domain R4-ERQ N971E + H972R (UniProt Q14671).
T1 sequence: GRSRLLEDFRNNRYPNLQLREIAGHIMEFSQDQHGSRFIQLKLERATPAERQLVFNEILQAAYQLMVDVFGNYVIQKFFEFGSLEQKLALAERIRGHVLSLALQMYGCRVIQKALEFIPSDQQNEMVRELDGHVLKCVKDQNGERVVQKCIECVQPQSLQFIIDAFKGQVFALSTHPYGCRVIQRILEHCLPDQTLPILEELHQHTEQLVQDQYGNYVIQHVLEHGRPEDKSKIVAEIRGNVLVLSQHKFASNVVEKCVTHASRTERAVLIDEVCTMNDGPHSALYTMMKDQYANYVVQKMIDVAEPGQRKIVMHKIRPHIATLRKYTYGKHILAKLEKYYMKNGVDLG

For assay [2], the target named is T2, PUM1 PUF domain R4-FNG N971F + H972N + Q975G (UniProt Q14671).
T2 sequence: T1 sequence with E144F, R145N, Q148G

The target in assay [3] is T3, PUM1 PUF domain R4-GQR N971G + H972Q + Q975R (UniProt Q14671).
T3 sequence: T1 sequence with E144G, R145Q, Q148R

The target in assay [4] is T4, PUM1 PUF domain R4-GRR N971G + H972R + Q975R (UniProt Q14671).
T4 sequence: T1 sequence with E144G, Q148R

The target of assay [5] is T5, PUM1 PUF domain R4-MNR N971M + H972N + Q975R (UniProt Q14671).
T5 sequence: T1 sequence with E144M, R145N, Q148R

Assay [6] deals with T6, PUM1 PUF domain R4-MNV N971M + H972N + Q975V (UniProt Q14671).
T6 sequence: T1 sequence with E144M, R145N, Q148V

For assay [7], the target named is T7, PUM1 PUF domain R4-RMR N971R + H972M + Q975R (UniProt Q14671).
T7 sequence: T1 sequence with E144R, R145M, Q148R

The target in assay [8] is T8, PUM1 PUF domain R4-SHP N971S + Q975P (UniProt Q14671).
T8 sequence: T1 sequence with E144S, R145H, Q148P

The target in assay [9] is T9, PUM1 PUF domain R4-SRR N971S + H972R + Q975R (UniProt Q14671).
T9 sequence: T1 sequence with E144S, Q148R

Assay [10] addresses T10, PUM1 PUF domain R4-VFP N971V + H972F + Q975P (UniProt Q14671).
T10 sequence: T1 sequence with E144V, R145F, Q148P

The target of assay [11] is T11, PUM1 PUF domain R5-GSK C1007G + R1008S + Q1011K (UniProt Q14671).
T11 sequence: T1 sequence with E144N, R145H, C180G, R181S, Q184K

In assay [12] the target is T12, PUM1 PUF domain R5-KAG C1007K + R1008A + Q1011G (UniProt Q14671).
T12 sequence: T1 sequence with E144N, R145H, C180K, R181A, Q184G

Assay [13] concerns the target T13, PUM1 PUF domain R5-KLI C1007K + R1008L + Q1011I (UniProt Q14671).
T13 sequence: T1 sequence with E144N, R145H, C180K, R181L, Q184I

The target in assay [14] is T14, PUM1 PUF domain R5-KPL C1007K + R1008P + Q1011L (UniProt Q14671).
T14 sequence: T1 sequence with E144N, R145H, C180K, R181P, Q184L

For assay [15], the target named is T15, PUM1 PUF domain R5-KRW C1007K + Q1011W (UniProt Q14671).
T15 sequence: T1 sequence with E144N, R145H, C180K, Q184W

Assay [16] deals with T16, PUM1 PUF domain R5-NLL C1007N + R1008L + Q1011L (UniProt Q14671).
T16 sequence: T1 sequence with E144N, R145H, C180N, R181L, Q184L

Assay [17] has as its target T17, PUM1 PUF domain R5-QGR C1007Q + R1008G + Q1011R (UniProt Q14671).
T17 sequence: T1 sequence with E144N, R145H, C180Q, R181G, Q184R

Assay [18] deals with T18, PUM1 PUF domain R5-RKV C1007R + R1008K + Q1011V (UniProt Q14671).
T18 sequence: T1 sequence with E144N, R145H, C180R, R181K, Q184V

For assay [19], the target named is T19, PUM1 PUF domain R5-RVC C1007R + R1008V + Q1011C (UniProt Q14671).
T19 sequence: T1 sequence with E144N, R145H, C180R, R181V, Q184C

The target in assay [20] is T20, PUM1 PUF domain R5-SGV C1007S + R1008G + Q1011V (UniProt Q14671).
T20 sequence: T1 sequence with E144N, R145H, C180S, R181G, Q184V

Changes are numbered by the printed parent chain. This is one part of the list. At the low end of the ranking, values are background and their order means little.

Consider “GGCUAGAACUAGUGGAUCCCCCGGCGCCCGGCGGCUCGAGCCCGGGUAAGUGUAAAUAGUCUGCAUGCCGCCGGGCGCCAUGCCUGCAGGUCGACUCUAGAAAACAUG”, for which the binding signal (log2 enrichment (interaction score)) in [1] is < -5.36; in assay [2] it was < -7.65; in [3] it was < -8.26; in [4] it was -7.37; in [5], < -4.91; in assay [6], < -5.46. Moreover, the binding signal (log2 enrichment (interaction score)) in [7] is -5.95; in assay [8], < -5.22; in assay [9], < -7.96; in assay [10], < -6.43; in assay [11] it was -2.42; in [12] it was -2.06. Further, the binding signal (log2 enrichment (interaction score)) in [13] is -2.45; in assay [14], -2.44; in assay [15], < -6.5; in assay [16], -2.31; in [17], -2.5; in [18], -2.29. The figures for the binding signal (log2 enrichment (interaction score)) in [19] and in assay [20] were -2.32 and -3.48, respectively.

For the origin of these results see article PMC8384837.
